Some of these results come from one statement about several compounds together.
Target: T1, Human N-terminal recombinant Hsp90 protein (region of amino acids 9 to 236) (Homo sapiens, UniProt P07900)
T1 construct: region of amino acids 9 to 236; made in house
Assay: Hsp90 Protein Binding Assay
Settings: at concentrations below 10 μmol/L; competition with biotinylated Radicicol 0.1 μmol/L, immobilized Hsp90, time-resolved fluorescence

Row | SMILES | inhibited the binding of biotinylated Radicicol to the Hsp90 protein
1 | CCc1c(O)cc(O)c(C(=O)c2ccc(F)cc2)c1CC(=O)N(CCO)CCO [Compound 50, 2-[2-ethyl-3,5-dihydroxy-6-(4-fluorobenzoyl)-phenyl]-N,N-bis(2-hydroxyethyl)acetamide] | more than 30%
2 | CCc1c(O)cc(O)c(C(=O)c2ccc(OC)c(OC)c2)c1CCOCC(O)CO (stereo not shown) [Compound 51, 6-[2-(2,3-dihydroxypropyloxy)ethyl]-5-ethyl-2,4-dihydroxyphenyl=3,4-dimethoxyphenyl=ketone] | more than 30%
3 | CCc1c(O)cc(O)c(C(=O)c2ccc(OC)c(F)c2)c1CCOCC(O)CO (stereo not shown) [Compound 52, 6-[2-(2,3-dihydroxypropyloxy)ethyl]-5-ethyl-2,4-dihydroxyphenyl=3-fluoro-4-methoxyphenyl=ketone] | more than 30%
4 | CCc1c(O)cc(O)c(C(=O)c2cc(OC)c(OC)c(OC)c2)c1CCOCC(O)CO (stereo not shown) [Compound 53, 6-[2-(2,3-dihydroxypropyloxy)ethyl]-5-ethyl-2,4-dihydroxyphenyl=3,4,5-trimethoxyphenyl=ketone] | more than 30%
5 | CCc1c(O)cc(O)c(C(=O)c2ccc(F)cc2)c1CC(=O)N1CCc2cc(OC)c(OC)cc2C1 [Compound 54, 2-[2-ethyl-3,5-dihydroxy-6-(4-fluorobenzoyl)-phenyl]-1-(6,7-dimethoxy-1,2,3,4-tetrahydroisoquinolin-2-yl)ethanone] | more than 30%
6 | CCc1c(O)cc(O)c(C(=O)c2ccc(O)cc2)c1CC(=O)N1CCN(c2ccccc2)CC1 [Compound 55, 2-[2-ethyl-3,5-dihydroxy-6-(4-hydroxy-benzoyl)phenyl]-1-(4-phenylpiperazin-1-yl)ethanone] | more than 30%
7 | CCc1c(O)cc(O)c(C(=O)c2ccc(OC)c(OC)c2)c1CC(=O)N(CCO)CCOC [Compound 56, 2-[2-(3,4-dimethoxybenzoyl)-6-ethyl-3,5-dihydroxyphenyl]-N-(2-hydroxyethyl)-N-(2-methoxyethyl)-acetamide] | more than 30%
8 | CCc1c(O)cc(O)c(C(=O)c2ccc(F)c(Cl)c2)c1CCOCC(O)CO (stereo not shown) [Compound 57, 6-[2-(2,3-dihydroxypropyloxy)ethyl]-5-ethyl-2,4-dihydroxyphenyl=3 chloro-4-fluorophenyl=ketone] | more than 30%
9 | CCc1c(O)cc(O)c(C(=O)c2ccc(OC)c(-c3cccc(O)c3)c2)c1CCOCC(O)CO (stereo not shown) [Compound 58, 6-[2-(2,3-dihydroxypropyloxy)ethyl]-5-ethyl-2,4-dihydroxyphenyl=3 (3-hydroxyphenyl)-4-methoxyphenyl=ketone] | more than 30%
10 | CCc1c(O)cc(O)c(C(=O)c2ccc(OC)c(-c3cccc(OC)c3)c2)c1CCOCC(O)CO (stereo not shown) [Compound 59, 6-[2-(2,3-dihydroxypropyloxy)ethyl]-5-ethyl-2,4-dihydroxyphenyl=4-methoxy-3-(3-methoxyphenyl)phenyl=ketone] | more than 30%
11 | CCc1c(O)cc(O)c(C(=O)c2ccc(OC)cc2)c1CCOCCO [Compound 60, 5-ethyl-2,4-dihydroxy-6-[2-(2-hydroxyethoxy)-ethyl]phenyl=4-methoxyphenyl=ketone] | more than 30%
12 | CCc1c(O)cc(O)c(C(=O)c2ccc(OC)cc2)c1CC(=O)N1CCC(CO)CC1 [Compound 61, 2-[2-ethyl-3,5-dihydroxy-6-(4-methoxybenzoyl)phenyl]-1-[4-(hydroxymethyl)piperidino]-ethanone] | more than 30%
13 | CCc1c(O)cc(O)c(C(=O)c2ccccc2)c1CCOCCO [Compound 62, 5-ethyl-2,4-dihydroxy-6-[2-(2-hydroxyethoxy)-ethyl]phenyl=phenyl=ketone] | more than 30%
14 | CCc1c(O)cc(O)c(C(=O)c2ccc(OC)c(O)c2)c1CCOCCO [Compound 63, 5-ethyl-2,4-dihydroxy-6-[2-(2-hydroxyethoxy)-ethyl]phenyl=3-hydroxy-4-methoxyphenyl=ketone] | more than 30%
15 | CCc1c(O)cc(O)c(C(=O)c2ccc(OC)cc2)c1CC(=O)N1CCN(c2cccc(Cl)c2)C(=O)C1 [Compound 64, 1-(3-chlorophenyl)-4-{2-[2-ethyl-3,5-dihydroxy-6-(4-methoxybenzoyl)phenyl]acetyl}piperazin-2-one] | more than 30%
16 | CCc1c(O)cc(O)c(C(=O)c2ccc(OC(F)F)cc2)c1CCOCCO [Compound 65, 5-ethyl-2,4-dihydroxy-6-[2-(2-hydroxyethoxy)-ethyl]phenyl=4-(difluoromethoxy)phenyl=ketone] | more than 30%
17 | CCc1c(O)cc(O)c(C(=O)c2ccc(F)cc2)c1CC(=O)N(CCO)CCOC [Compound 66, 2-[2-ethyl-6-(4-fluorobenzoyl)-3,5-dihydroxyphenyl]-N-(2-hydroxyethyl)-N-(2-methoxyethyl)-acetamide] | more than 30%
18 | CCc1c(O)cc(O)c(C(=O)c2ccc(OC)cc2)c1CC(=O)N1CCC(S(C)(=O)=O)CC1 [Compound 67, 2-[2-ethyl-3,5-dihydroxy-6-(4-methoxybenzoyl)phenyl]-1-[4-(methylsulfonyl)piperidino]ethanone] | more than 30%
19 | CCc1c(O)cc(O)c(C(=O)c2ccc(OC)cc2)c1CC(=O)N1CCN(c2ccccc2)C(=O)C1 [Compound 68, 4-{2-[2-ethyl-3,5-dihydroxy-6-(4-methoxybenzoyl)phenyl]acetyl}-1-phenylpiperazin-2-one] | more than 30%
20 | CCc1c(O)cc(O)c(C(=O)c2ccncc2)c1CCOCC(O)CO (stereo not shown) [Compound 70, 6-[2-(2,3-dihydroxypropyloxy)ethyl]-5-ethyl-2,4-dihydroxyphenyl=4 pyridyl=ketone] | more than 30%
21 | CCc1c(O)cc(O)c(C(=O)c2cccs2)c1CCOCCO [Compound 72, 5-ethyl-2,4-dihydroxy-6-[2-(2-hydroxyethoxy)-ethyl]phenyl=2-thienyl=ketone] | more than 30%
22 | CCc1c(O)cc(O)c(C(=O)c2ccoc2)c1CCOCCO [Compound 73, 5-ethyl-2,4-dihydroxy-6-[2-(2-hydroxyethoxy)-ethyl]phenyl=3-furyl=ketone] | more than 30%
23 | CCc1c(O)cc(O)c(C(=O)c2ccsc2)c1CC(=O)N(CCO)CCO [Compound 74, 2-[2-ethyl-3,5-dihydroxy-6-(3-thienyl-carbonyl)phenyl]-N,N-bis(2-hydroxyethyl)acetamide] | more than 30%
24 | CCc1c(O)cc(O)c(C(=O)c2ccccc2)c1CC(=O)N1CCN(c2ccccc2C#N)C(=O)C1 [Compound 75, 4-{2-[2-benzoyl-6-ethyl-3,5-dihydroxyphenyl]-acetyl}-1-(2-cyanophenyl)piperazin-2-one] | more than 30%
25 | CCc1c(O)cc(O)c(C(=O)c2ccccc2)c1CC(=O)N(CCO)CCO [Compound 76, 2-[2-benzoyl-6-ethyl-3,5-dihydroxyphenyl]-N,N-bis(2-hydroxyethyl)acetamide] | more than 30%

Source: patent US7767693B2, “Hsp90 family protein inhibitors” (Kyowa Hakko Kirin Co., Ltd., priority 2003, dated 2010)
